## Results of single-concentration screens

Sequences of proteins named here, by UniProt entry; tags and fusion partners are left off.
UniProt P9WPC5, whole entry: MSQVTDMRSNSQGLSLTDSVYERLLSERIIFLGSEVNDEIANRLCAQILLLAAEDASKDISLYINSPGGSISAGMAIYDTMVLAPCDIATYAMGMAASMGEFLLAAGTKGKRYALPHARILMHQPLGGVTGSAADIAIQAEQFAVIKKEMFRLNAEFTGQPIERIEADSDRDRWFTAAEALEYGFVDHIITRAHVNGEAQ
UniProt P9WPC3, whole entry partner: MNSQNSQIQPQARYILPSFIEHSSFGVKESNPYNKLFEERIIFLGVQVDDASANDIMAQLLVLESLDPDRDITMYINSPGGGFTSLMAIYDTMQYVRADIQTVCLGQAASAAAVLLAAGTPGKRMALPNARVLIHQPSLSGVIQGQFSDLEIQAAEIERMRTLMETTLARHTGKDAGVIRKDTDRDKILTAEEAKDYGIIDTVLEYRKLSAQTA

Measurements from “University of Dundee, Small-Polar-MMV Screening Library” (2021), ChEMBL document CHEMBL3988442.

Toxoplasma: 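Assay of Toxoplasma gondii numbers, read through their beta-galactosidase reporter with a colour substrate. Tested at 10 µM. Higher reads as fewer parasites (inferred from which compounds were picked for retests). Size under these conditions: about 67,000 compounds, about 260 of them at 50% or above in at least one test.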
ClpP1P2: 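ClpP1P2, Mycobacterium tuberculosis (UniProt P9WPC5 and UniProt P9WPC3). Protease assay of ClpP1P2, read by the AMC dye that it sets free. Tested at 50 µM. Higher reads as stronger inhibition, judged from the few compounds that gave an IC50. Most other retested compounds had strongly negative values. About 69,000 compounds were tested under these conditions; 0.015% (about 10) showed 50% or more at least once.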

The filed quantity is “Percent Effect” (%). The controls that fix the scale are not given in the record; negative values are as filed. Compounds were drawn at random from those tested, without regard to their results. A dash means the value is not listed here; it may have been measured.

SMILES | Toxoplasma | ClpP1P2
Cc1cc(C)n(CC2CCCN2C(=O)CCCc2ccccn2)n1 (stereo not drawn) | 0.1411 | 10.13
CCc1nc(C)ncc1C(=O)N1CCOC(c2nc(C)n[nH]2)C1 (stereo not drawn) | -11.52 | -2.621
CCCc1cc(=O)[nH]c(-c2ccccc2CN(C)CCn2cccn2)n1 | 5.808 | -2.754
Cc1nc(C)n(C2CCCN(C(=O)c3ccccc3C)C2)n1 (stereo not drawn) | -2.304 | 10.78
O=C(O)C(F)(F)F.O=C(O)C(F)(F)F.[H][C@@]12CCCO[C@]1([H])[C@H](OCC)CN2Cc1scnc1C | 8.84 | -
O=C(O)c1ccnc(-c2ccnc(N3CCC(F)(F)CC3)n2)c1 | -9.508 | 9.017
CN(Cc1cccnc1)[C@@H]1CN(C(=O)c2ccoc2)[C@@H]2CCCO[C@H]12 | - | -5.437
CC(=O)N1[C@H](Cn2cncn2)C[C@@H]2CN(Cc3nccs3)CC[C@@H]21 | - | -5.795
CS(=O)(=O)N1CCN(C(=O)c2cncs2)CC(C(N)=O)C1 (stereo not drawn) | 8.631 | -12.08
CN(C)C(=O)Cn1c2c(ccc1=O)CCN(Cc1cnn(C)c1)CC2 | - | -6.628
O=C(C1NCCc2[nH]cnc21)N1CCC2(CC1)CNc1ccccc12 (stereo not drawn) | -8.197 | -12.72
Cn1cnc(S(=O)(=O)N2CC3(CCN(c4ccccc4)C3)C2)c1 | - | 7.735
Cn1c(CN2CCOCC2)nnc1C1CCCN(CC(N)=O)C1 (stereo not drawn) | 1.724 | -4.186
COc1ccc(CNCC(C)Oc2ccccn2)cc1Br (stereo not drawn) | - | 10.59
Cc1cccnc1NC(=O)C1CCN(C(=O)C(C)C)CC1 | 9.762 | 15.23
COc1cccc2c1N(C(=O)c1ccc(C)nc1)CCC2 | -6.425 | -2.603
Cc1ccccc1C(NC(=O)CCCS(C)(=O)=O)C(C)(C)C (stereo not drawn) | -14.76 | -0.5425
COc1ccc(O)c(C(=O)NCC2CCCN(C3CCOCC3)C2)c1 (stereo not drawn) | 15.86 | -7.02
Cc1ccc(CN(C)C(=O)c2cc(Cn3ccnc3C(C)C)[nH]n2)o1 | 3.65 | -15.11
Cc1ncc2c(n1)CN(CC(=O)Nc1cc(C)on1)CC2 | 18.23 | -35.3
Cc1cc(C(=O)NCC2OCCc3cn(CC4CC4)nc32)c(C)[nH]1 (stereo not drawn) | 5.252 | 2.19
[H][C@@]12OCCN(C(=O)COC)[C@@]1([H])CC[C@H]2OC | -4.25 | -
CN1CCc2c(CNc3ncccn3)n[nH]c2C1.O=C(O)C(F)(F)F | 3.245 | -
Cn1cc(CNC2CC3(CCN(S(C)(=O)=O)CC3)c3ccccc32)cn1.O=C(O)C(F)(F)F (stereo not drawn) | -13.44 | -
O=C(O)C(F)(F)F.O=C(O)C(F)(F)F.[H][C@]12CCC(=O)N(c3cccnc3)[C@@]1([H])CCN2c1ncc(CC)cn1 | 7.016 | -
Cc1cccc(CN2CCCC3(CCN(CC(=O)N(C)C)C3=O)C2)n1 (stereo not drawn) | - | -3.428
CSc1ccsc1C(=O)NC(Cc1ccccc1)C(N)=O (stereo not drawn) | -0.3793 | -5.992
CC1COc2ccccc2N1C(=O)CCc1cscn1 (stereo not drawn) | -4.369 | 9.851
COCC(=O)Nc1ccc(-c2noc([C@@H]3CCCN3C(C)C)n2)cn1 | 6.358 | -12.58
O=C(O)C(F)(F)F.[H][C@@]12CCN(CC3CC3)[C@@]1([H])CCN2C(=O)c1ccc(C#N)cc1 | 2.626 | -
COc1cc(C(=O)O)ccc1OCC(=O)NC(C)c1ccc(F)cc1 (stereo not drawn) | 7.89 | -4.03
COCCc1ncc(-c2c(C#N)c(N)nc3c2CCc2[nH]ccc2-3)cn1 | -6.126 | -23.65
Cc1cc(CN2C[C@@H]3COC[C@]3(COCC(=O)N(C)C)C2)no1 | - | -6.546
Cc1cccc(Cn2c3c(ccc2=O)CCN(Cc2ccoc2)CC3)n1 | - | 4.725
O=C(Nc1cnc(C2CC2)nc1)N1CCCC1 | -4.307 | 0.8524
CC(=O)c1c(F)cccc1NCC(O)c1ccc(F)c(F)c1 (stereo not drawn) | 10.25 | 1.546
CN(CCc1ccccn1)C(=O)CCC1CCCN(S(C)(=O)=O)C1 (stereo not drawn) | 2.588 | 4.338
O=C(O)C(F)(F)F.[H][C@@]12CN(Cc3ccco3)CCC[C@]1(C(=O)O)CN(c1ncccn1)C2 | 4.557 | -
c1cc(CN2CC[C@@H]3CN(c4cncnc4)C[C@@H]3C2)ccn1 | - | -9.052
CCOCC1CN(C(=O)[C@H]2CCCO2)Cc2nnn(CC3CC3)c21 (stereo partly drawn) | -3.138 | 12.18
C1CN(CC2CCOCC2)Cc2c(COCC3CC3)nnn2C1.O=C(O)C(F)(F)F | 10.65 | -
O=C(C1CCOCC1)N1CCO[C@H]2[C@H](Oc3ccccn3)CC[C@@H]21 | - | 5.565
CN1CC(c2cc(O)nc(NCc3ccccc3Cl)n2)CC1=O (stereo not drawn) | -5.181 | 7.344
Cc1ccc(CN(C)C(=O)C(C)n2cncn2)o1 (stereo not drawn) | -56.77 | -8.116
Cc1ccc(C2CSCCN2C(=O)c2cccs2)o1 (stereo not drawn) | 2.33 | 7.402
CO[C@@H]1CCN(C(=O)Cc2ccc(F)cc2)[C@@H]1Cc1cccnc1 | - | 0.8006
CC(C)n1cnnc1CN(C)CC1CCCNC1 (stereo not drawn) | -5.479 | 0.4582
CCOc1ccc(Cl)c(C(=O)NC(C(N)=O)c2ccccc2)n1 (stereo not drawn) | -2.908 | 0.1362
Cl.Cl.O[C@@H]1C[C@@](CNCc2cccc(Cl)c2)(COc2cnccn2)C[C@@H]1O | -1.986 | -
Cc1cccnc1CN1CCN(C(=O)CCn2ccccc2=O)CC1 | 1.902 | 6.122
CCc1ncnc2c1CCN(Cc1nccs1)CC2 | - | 9.916
CC(C)CN1CCS(=O)(=O)[C@@H]2CCN(S(=O)(=O)N(C)C)CC[C@@H]21 | - | -7.322
Cc1cccc(CN2C(=O)CCC23CCN(Cc2cccn2C)CC3)n1 | - | 13.72
COc1cccc(N2CCN(CC(O)c3cc(C)sc3C)CC2)c1 (stereo not drawn) | -0.5766 | 6.874
O=C(NCCc1nnc2n1CCC2)N(Cc1ccco1)C1CCCC1 | 0.2528 | -6.418
CCc1ccc(CN2CC[C@@H]3NC(=O)CC[C@@H]32)o1 | - | -4.976
OC(COCc1ccco1)CSc1nnc2ccccn12 (stereo not drawn) | - | -23.03
Cc1nnc2n1CCN(C(=O)c1cc(Cl)c(Cl)n1C)C2 | -13.27 | 1.077
CCn1ccc(-c2cc(C(=O)O)n3nc(C(F)(F)F)c(Br)c3n2)n1 | 15.33 | -5.512
O=C(O)C(F)(F)F.[H][C@@]12CCN(Cc3ccc(C)o3)C[C@@]1([H])[C@H](C(=O)N1CCCCO1)CCO2 | -13.71 | -
Cc1cc(N2CCCC(OC(=O)CCc3cnn(C)c3)C2)nc(C)n1 (stereo not drawn) | 3.085 | 2.987
CS(=O)(=O)N[C@@H]1CCO[C@]2(CCN(C(=O)c3cnccn3)C2)C1 | 3.927 | -1.575
C[C@]1(O)CN(Cc2ncccc2F)CC[C@@H]1Oc1cccc(F)c1 | 2.384 | -12.11
COc1cccc(CCC(=O)N2CCC[C@@H](N)[C@@H]2c2ccccc2F)c1 | - | -21.53
COc1ccc(CC(=O)N2CCN(C)c3ncccc3C2)cc1 | - | -4.527
Cc1cccc(C(=O)N2C[C@@H](OCc3ccncc3)[C@@H]3OCCC[C@@H]32)n1 | - | 1.429
CCc1nc(CN2CCCN(C(=O)CC3CCCC3)CC2)cs1 | 4.377 | -13.34
Cc1nc(CN2C(=O)C[C@H]3[C@H]2CCN3CC2CCOC2)cs1 (stereo partly drawn) | - | -7.26
CCc1cc(N2CCC(n3cc(C(=O)NCC(C)C)nn3)CC2)ncn1 | 2.984 | -6.345
COc1ccc(OC)c(C2CC(=O)Nc3nc(N4CCOCC4)sc32)c1 (stereo not drawn) | -14.31 | -245.3
[H][C@]12CCN(Cc3cnc(-c4cccc(OC)c4)s3)C[C@]([H])(CC1)N2 | -22.07 | -
Cc1noc(C)c1CN1CC[C@H]2O[C@@H](C(=O)N3CCCC3)CC[C@H]21 | - | -3.614
Clc1ccc(CN2CCCC(Cn3cncn3)C2)c2ncccc12 (stereo not drawn) | 8.426 | -11.48

The last 6 entries again:

SMILES	Toxoplasma	ClpP1P2
Cc1nc(CN2C(=O)C[C@H]3[C@H]2CCN3CC2CCOC2)cs1 (stereo partly drawn)	-	-7.26
CCc1cc(N2CCC(n3cc(C(=O)NCC(C)C)nn3)CC2)ncn1	2.984	-6.345
COc1ccc(OC)c(C2CC(=O)Nc3nc(N4CCOCC4)sc32)c1 (stereo not drawn)	-14.31	-245.3
[H][C@]12CCN(Cc3cnc(-c4cccc(OC)c4)s3)C[C@]([H])(CC1)N2	-22.07	-
Cc1noc(C)c1CN1CC[C@H]2O[C@@H](C(=O)N3CCCC3)CC[C@H]21	-	-3.614
Clc1ccc(CN2CCCC(Cn3cncn3)C2)c2ncccc12 (stereo not drawn)	8.426	-11.48